In paper PMC6504903:
No constants are given. Whether binding was seen depends on the method and setting. Binding seen in cells or lysates may run through a third protein. Tags and fused reporters may be left off the sequences shown.

T1: Ndc1-mT2 (budding yeast), P32500
T1 chain: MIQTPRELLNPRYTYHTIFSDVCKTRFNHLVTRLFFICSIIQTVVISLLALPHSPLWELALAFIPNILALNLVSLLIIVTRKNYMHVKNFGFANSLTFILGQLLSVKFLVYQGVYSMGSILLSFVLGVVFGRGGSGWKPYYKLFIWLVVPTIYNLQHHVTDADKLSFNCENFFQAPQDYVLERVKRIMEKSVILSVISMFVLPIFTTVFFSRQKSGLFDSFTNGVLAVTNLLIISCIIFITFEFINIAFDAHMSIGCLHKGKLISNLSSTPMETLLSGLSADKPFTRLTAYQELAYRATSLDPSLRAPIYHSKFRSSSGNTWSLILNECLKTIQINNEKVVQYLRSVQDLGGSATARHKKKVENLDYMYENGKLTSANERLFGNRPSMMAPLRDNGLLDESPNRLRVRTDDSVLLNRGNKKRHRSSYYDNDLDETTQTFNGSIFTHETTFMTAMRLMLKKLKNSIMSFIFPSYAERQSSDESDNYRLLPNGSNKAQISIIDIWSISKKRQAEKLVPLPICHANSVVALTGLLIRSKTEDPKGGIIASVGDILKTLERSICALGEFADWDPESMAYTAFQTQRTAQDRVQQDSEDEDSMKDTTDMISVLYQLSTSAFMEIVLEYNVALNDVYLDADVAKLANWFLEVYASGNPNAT

T2: Bbp1-mT2 (budding yeast) (UniProt Q12365)
T2 sequence: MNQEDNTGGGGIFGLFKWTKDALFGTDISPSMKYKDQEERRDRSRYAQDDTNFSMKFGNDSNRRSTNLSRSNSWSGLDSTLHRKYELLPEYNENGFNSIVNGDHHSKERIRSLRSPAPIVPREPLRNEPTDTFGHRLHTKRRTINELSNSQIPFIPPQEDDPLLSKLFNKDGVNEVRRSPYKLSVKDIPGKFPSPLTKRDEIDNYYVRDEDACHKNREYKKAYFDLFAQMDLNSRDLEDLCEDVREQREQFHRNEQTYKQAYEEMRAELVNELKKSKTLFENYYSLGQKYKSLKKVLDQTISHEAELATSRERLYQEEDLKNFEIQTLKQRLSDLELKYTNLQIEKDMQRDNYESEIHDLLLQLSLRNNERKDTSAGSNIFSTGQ


Experiments:
[1] = molecular target: T1, Ndc1-mT2 (budding yeast), P32500; experiment: FRET or BRET; acceptor photobleaching FRET at the SPB in fixed, asynchronously growing yeast cells; mT2 donor, YFP acceptor, bleached at 514 nm for 1 min; relative FRET efficiency against the donor-only control; settings: remark: other sources report otherwise
[2] = molecular target: T2, Bbp1-mT2 (budding yeast); experiment: as above

Row | Binder | binding [1] | binding [2]
1 | YFP-Mps3, P47069 1-682 (protein) MNNSNEHRREEAGAANEQMPYNKAVKSAYADVLKDKMNREQEISLRAIKKGIYTDGGETDNYDMDKENDSAYEMFKKNLDFPLDQHNDDDDDDPYIEDNGQETDGYSDEDYTDEADKSFIEDSDSDSYDLESNSDFEENLESSGEAKKLKWRTYIFYGGLFFVFYFFGSFLMTTVKNNDLESHSSGATSSPGKSFSNLQKQVNHLYSELSKRDEKHSSELDKTVKIIVSQFEKNIKRLLPSNLVNFENDINSLTKQVETISTSMSELQRRNHKFTVENVTQWQDQLVKQLDTHLPQEIPVVINNSSSLLIIPELHNYLSALISDVIESPGIGTAGSAESRWEYDLNRYVKEILSNELQYIDKDYFIQEMNRRLQSNKQEIWEEITNRLETQQQQQQQQVQQDYSNVPQQYSSILMKRLIHQIYNSNQHQWEDDLDFATYVQGTKLLNHLTSPTWRQGSGVQPIELLTDSKQSSSTYWQCENEPGCSWAIRFKTPLYLTKISYMHGRFTNNLHIMNSAPRLISLYVKLSQTKEIKALQTLANQYGFGQHHKRDRNYIKIAKFEYRLTDSRIRQQMYLPPWFIQLKPLVRSIVFQVDENYGNKKFISLRKFIINGVTPQDLQIIENNEFPVLLGDTPEYGVTQNTDEGKRKVLLSKPPYASSSTSTKFHPASNVPSFGQDELDQ | no binding | 
2 | YFP-Mps3 (protein, UniProt P47069 1-682) MNNSNEHRREEAGAANEQMPYNKAVKSAYADVLKDKMNREQEISLRAIKKGIYTDGGETDNYDMDKENDSAYEMFKKNLDFPLDQHNDDDDDDPYIEDNGQETDGYSDEDYTDEADKSFIEDSDSDSYDLESNSDFEENLESSGEAKKLKWRTYIFYGGLFFVFYFFGSFLMTTVKNNDLESHSSGATSSPGKSFSNLQKQVNHLYSELSKRDEKHSSELDKTVKIIVSQFEKNIKRLLPSNLVNFENDINSLTKQVETISTSMSELQRRNHKFTVENVTQWQDQLVKQLDTHLPQEIPVVINNSSSLLIIPELHNYLSALISDVIESPGIGTAGSAESRWEYDLNRYVKEILSNELQYIDKDYFIQEMNRRLQSNKQEIWEEITNRLETQQQQQQQQVQQDYSNVPQQYSSILMKRLIHQIYNSNQHQWEDDLDFATYVQGTKLLNHLTSPTWRQGSGVQPIELLTDSKQSSSTYWQCENEPGCSWAIRFKTPLYLTKISYMHGRFTNNLHIMNSAPRLISLYVKLSQTKEIKALQTLANQYGFGQHHKRDRNYIKIAKFEYRLTDSRIRQQMYLPPWFIQLKPLVRSIVFQVDENYGNKKFISLRKFIINGVTPQDLQIIENNEFPVLLGDTPEYGVTQNTDEGKRKVLLSKPPYASSSTSTKFHPASNVPSFGQDELDQ |  | no binding
